Data taken from the supplement of paper PMC7666118.
This is one part of the list.

Amino acid sequences for entries named in this document (tags omitted). A change or cut given only in a name is not applied to a line headed by its entry.
UniProt P78536: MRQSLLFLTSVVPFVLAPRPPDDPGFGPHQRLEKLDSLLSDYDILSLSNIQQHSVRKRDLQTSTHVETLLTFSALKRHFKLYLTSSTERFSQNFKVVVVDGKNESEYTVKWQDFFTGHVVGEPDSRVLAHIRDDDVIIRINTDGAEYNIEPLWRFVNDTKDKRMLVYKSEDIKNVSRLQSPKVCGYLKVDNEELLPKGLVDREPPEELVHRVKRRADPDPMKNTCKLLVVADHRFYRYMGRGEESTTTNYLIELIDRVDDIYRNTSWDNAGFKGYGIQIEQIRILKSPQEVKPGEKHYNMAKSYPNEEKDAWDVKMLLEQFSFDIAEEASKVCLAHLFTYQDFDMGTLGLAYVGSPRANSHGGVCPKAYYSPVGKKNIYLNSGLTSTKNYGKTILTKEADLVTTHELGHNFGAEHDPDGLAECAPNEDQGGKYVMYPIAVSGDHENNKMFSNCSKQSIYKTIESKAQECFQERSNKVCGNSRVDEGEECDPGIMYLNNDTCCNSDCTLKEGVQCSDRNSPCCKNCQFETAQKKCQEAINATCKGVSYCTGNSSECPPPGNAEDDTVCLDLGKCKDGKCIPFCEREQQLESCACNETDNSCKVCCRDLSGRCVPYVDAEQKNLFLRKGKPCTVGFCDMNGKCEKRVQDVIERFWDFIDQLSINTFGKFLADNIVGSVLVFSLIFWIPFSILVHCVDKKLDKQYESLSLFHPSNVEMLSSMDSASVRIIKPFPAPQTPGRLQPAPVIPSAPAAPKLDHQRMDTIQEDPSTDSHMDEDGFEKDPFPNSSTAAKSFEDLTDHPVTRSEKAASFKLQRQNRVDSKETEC
UniProt Q9NUJ1: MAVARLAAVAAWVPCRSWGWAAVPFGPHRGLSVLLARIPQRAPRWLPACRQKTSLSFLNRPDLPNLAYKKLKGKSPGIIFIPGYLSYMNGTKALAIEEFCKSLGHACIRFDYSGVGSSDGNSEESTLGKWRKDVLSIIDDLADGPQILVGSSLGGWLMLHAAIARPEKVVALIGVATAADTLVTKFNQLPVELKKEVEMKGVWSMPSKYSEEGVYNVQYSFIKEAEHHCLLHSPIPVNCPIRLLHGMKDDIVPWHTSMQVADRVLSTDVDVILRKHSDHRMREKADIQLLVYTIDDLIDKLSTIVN
UniProt Q9NUB1: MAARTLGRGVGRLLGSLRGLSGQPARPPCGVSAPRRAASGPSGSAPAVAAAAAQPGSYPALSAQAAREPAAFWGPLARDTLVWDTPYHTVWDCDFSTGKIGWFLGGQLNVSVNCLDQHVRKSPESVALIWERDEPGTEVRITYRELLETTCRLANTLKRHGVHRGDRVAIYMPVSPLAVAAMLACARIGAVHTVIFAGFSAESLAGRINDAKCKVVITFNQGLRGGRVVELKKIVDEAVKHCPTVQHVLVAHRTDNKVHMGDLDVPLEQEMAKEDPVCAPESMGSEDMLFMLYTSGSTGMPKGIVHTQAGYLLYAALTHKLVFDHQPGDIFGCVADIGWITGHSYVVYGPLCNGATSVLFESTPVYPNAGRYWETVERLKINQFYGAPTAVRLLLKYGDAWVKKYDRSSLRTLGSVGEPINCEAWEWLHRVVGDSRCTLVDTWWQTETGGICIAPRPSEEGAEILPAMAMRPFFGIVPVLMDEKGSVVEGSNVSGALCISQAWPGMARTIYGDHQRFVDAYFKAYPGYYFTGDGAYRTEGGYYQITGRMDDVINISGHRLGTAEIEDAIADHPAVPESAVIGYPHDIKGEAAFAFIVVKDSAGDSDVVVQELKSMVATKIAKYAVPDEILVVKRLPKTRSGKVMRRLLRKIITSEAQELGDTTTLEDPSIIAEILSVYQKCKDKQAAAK
UniProt Q9BWD1: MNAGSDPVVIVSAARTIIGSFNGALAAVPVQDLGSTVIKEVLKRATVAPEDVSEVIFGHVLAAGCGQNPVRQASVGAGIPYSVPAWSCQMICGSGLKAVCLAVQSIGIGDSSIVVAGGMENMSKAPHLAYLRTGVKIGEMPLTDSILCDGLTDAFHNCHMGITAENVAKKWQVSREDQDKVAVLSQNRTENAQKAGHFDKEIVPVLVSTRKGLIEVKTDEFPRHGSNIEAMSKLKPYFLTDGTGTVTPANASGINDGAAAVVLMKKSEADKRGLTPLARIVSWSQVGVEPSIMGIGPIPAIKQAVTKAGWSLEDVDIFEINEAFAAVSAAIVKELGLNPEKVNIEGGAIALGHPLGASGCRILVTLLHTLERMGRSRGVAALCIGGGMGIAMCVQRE
UniProt Q12979: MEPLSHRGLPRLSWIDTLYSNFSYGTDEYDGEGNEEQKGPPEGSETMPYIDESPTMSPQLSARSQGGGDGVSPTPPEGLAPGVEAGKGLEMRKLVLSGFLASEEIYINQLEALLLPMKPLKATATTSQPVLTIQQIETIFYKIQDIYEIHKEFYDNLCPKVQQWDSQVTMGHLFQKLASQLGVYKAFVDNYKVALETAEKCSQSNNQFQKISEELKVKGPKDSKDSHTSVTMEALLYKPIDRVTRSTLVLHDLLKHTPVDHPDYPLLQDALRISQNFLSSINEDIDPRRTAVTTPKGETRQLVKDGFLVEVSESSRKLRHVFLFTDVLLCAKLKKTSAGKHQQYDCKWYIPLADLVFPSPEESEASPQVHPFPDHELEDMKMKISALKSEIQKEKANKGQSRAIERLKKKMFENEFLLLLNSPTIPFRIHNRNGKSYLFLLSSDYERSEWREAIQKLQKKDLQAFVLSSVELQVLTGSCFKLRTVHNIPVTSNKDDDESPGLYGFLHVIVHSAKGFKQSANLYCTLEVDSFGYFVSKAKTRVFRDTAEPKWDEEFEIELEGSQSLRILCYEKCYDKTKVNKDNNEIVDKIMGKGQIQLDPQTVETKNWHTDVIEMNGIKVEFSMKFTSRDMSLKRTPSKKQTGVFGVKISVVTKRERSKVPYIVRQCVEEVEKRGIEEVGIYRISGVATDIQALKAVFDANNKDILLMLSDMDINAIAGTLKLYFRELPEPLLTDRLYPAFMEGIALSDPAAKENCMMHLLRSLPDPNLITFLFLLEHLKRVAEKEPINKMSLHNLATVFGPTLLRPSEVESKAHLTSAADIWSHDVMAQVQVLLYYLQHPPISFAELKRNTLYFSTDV
UniProt Q9NRP4: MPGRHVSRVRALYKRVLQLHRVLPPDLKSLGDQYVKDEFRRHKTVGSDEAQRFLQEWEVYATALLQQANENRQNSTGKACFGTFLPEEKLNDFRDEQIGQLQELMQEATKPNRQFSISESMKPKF
UniProt O15440: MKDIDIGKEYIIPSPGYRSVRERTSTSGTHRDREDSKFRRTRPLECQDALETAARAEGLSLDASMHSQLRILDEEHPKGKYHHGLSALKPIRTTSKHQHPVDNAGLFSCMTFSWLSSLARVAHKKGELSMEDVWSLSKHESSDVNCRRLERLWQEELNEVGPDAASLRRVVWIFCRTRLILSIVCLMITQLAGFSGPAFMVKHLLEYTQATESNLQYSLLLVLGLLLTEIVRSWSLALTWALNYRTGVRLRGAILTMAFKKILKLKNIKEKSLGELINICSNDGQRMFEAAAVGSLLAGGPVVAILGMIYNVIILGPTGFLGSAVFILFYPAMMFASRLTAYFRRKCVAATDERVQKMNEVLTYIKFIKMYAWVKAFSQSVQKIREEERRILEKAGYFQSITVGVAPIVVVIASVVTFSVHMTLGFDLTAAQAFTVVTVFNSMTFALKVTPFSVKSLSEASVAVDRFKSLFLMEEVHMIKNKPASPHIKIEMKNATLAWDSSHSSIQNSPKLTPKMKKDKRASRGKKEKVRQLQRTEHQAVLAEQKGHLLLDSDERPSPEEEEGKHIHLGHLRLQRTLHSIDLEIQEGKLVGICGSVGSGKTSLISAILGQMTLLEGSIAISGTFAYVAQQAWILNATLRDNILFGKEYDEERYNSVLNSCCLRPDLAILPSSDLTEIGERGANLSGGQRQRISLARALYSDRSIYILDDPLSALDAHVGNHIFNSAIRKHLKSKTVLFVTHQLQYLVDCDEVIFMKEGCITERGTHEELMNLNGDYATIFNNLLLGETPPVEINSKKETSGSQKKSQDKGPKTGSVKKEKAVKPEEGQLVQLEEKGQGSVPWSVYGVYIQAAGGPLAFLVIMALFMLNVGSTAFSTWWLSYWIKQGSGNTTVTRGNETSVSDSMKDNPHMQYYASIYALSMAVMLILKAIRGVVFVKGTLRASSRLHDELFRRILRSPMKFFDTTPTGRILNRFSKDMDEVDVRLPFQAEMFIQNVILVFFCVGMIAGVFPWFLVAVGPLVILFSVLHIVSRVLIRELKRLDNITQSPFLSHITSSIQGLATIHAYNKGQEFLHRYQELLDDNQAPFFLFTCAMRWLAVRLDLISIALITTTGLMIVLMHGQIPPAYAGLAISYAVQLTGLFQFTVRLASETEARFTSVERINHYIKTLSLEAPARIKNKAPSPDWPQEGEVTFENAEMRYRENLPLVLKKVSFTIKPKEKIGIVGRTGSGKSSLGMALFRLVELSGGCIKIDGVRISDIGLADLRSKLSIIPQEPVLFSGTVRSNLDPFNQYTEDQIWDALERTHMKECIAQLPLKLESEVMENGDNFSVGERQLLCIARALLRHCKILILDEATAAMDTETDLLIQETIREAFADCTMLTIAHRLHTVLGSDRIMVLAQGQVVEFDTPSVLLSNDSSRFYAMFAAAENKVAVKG
UniProt O96019, whole entry: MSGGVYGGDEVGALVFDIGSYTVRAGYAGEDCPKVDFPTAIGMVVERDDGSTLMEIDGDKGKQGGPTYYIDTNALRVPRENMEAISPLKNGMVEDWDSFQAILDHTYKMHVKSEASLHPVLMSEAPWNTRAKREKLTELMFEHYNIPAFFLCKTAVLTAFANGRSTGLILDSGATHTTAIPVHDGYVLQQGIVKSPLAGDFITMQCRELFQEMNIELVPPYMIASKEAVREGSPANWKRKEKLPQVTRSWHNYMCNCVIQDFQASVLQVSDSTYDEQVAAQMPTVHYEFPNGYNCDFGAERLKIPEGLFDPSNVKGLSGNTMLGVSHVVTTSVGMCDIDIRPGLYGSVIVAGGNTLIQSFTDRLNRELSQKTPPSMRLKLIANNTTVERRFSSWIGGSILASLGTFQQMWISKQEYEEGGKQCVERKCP
UniProt Q99541: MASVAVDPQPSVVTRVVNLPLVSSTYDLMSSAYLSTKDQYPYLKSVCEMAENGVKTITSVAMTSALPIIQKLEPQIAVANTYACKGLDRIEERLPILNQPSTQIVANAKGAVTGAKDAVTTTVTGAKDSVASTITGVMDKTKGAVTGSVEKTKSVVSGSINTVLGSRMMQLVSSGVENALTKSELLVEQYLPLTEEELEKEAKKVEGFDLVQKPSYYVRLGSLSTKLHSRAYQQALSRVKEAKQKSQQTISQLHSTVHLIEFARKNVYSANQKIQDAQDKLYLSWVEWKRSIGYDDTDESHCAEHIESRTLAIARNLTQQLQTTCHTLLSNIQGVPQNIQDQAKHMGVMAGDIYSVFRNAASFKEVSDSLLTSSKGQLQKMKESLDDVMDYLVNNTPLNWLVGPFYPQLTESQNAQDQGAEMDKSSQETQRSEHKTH
UniProt Q5JTZ9, whole entry: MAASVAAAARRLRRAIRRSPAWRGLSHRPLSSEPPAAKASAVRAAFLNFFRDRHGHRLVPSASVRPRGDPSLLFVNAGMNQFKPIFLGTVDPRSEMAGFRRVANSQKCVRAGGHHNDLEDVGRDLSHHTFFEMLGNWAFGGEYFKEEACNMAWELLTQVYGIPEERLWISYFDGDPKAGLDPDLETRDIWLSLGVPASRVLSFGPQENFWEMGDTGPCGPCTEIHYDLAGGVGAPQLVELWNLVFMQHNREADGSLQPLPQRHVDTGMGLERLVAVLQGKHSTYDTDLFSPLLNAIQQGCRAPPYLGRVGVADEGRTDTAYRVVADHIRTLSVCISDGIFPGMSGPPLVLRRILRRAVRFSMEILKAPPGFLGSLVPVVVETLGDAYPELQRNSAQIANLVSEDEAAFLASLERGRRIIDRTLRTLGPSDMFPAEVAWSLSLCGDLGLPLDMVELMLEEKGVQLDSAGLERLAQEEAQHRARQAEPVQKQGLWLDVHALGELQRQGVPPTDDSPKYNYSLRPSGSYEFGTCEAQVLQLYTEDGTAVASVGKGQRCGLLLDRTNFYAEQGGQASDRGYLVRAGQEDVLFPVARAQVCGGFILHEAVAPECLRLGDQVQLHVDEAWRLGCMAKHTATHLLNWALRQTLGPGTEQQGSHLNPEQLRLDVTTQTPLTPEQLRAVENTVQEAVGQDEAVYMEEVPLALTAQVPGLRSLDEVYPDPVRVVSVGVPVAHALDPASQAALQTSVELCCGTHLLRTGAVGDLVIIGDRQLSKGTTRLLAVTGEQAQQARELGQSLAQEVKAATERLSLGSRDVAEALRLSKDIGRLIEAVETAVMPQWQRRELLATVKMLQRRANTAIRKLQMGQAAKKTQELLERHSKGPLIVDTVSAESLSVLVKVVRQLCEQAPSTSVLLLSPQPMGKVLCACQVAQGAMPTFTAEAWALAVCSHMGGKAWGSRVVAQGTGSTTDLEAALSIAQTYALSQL

The targets below were run with COc1ccc(Cn2ccc3cc(C)c(C(=O)NO)cc32)cc1 (assay: dose-dependent thermal stabilisation call (2D-TPP, DLPTP, 10% FDR) (binary (1 = stabilised)); higher = stabilised by the compound). Settings: system: HL-60 intact cells; concentration range 0.04-10 µM.
Method: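 2D thermal proteome profiling in intact HL-60 cells treated with BRD-3811 (0, 0.04, 0.29, 2, 10 uM) for 90 min at 37 C, then heated 3 min at one of 12 temperatures (42-63.9 C). Soluble protein was quantified by TMT10 MS. The value is the DLPTP call of the paper: dose-dependent thermal stabilisation over all temperatures at 10% FDR (F-test of a dose-response against a flat model); one experiment, one call per tested protein.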

Row | Target | dose-dependent thermal stabilisation call
1 | ABCD3 (UniProt P28288) | inactive: 0
2 | ADAM17 (UniProt P78536) | inactive: 0
3 | ACOT8 (UniProt O14734) | inactive: 0
4 | ABHD10 (UniProt Q9NUJ1) | inactive: 0
5 | AARS (UniProt P49588) | inactive: 0
6 | ACBD5 (UniProt Q5T8D3) | inactive: 0
7 | AATF (UniProt Q9NY61) | inactive: 0
8 | ACBD3 (UniProt Q9H3P7) | inactive: 0
9 | ACSS1 (UniProt Q9NUB1) | inactive: 0
10 | ACTN1 (UniProt P12814) | inactive: 0
11 | ACAT2 (UniProt Q9BWD1) | inactive: 0
12 | ABCE1 (UniProt P61221) | inactive: 0
13 | ADRBK1 (UniProt P25098) | inactive: 0
14 | ADD3 (UniProt Q9UEY8) | inactive: 0
15 | ACSL4 (UniProt O60488) | inactive: 0
16 | ACOX1 (UniProt Q15067) | inactive: 0
17 | A2LD1 (UniProt Q9BVM4) | inactive: 0
18 | ADRM1 (UniProt Q16186) | inactive: 0
19 | ADAT2 (UniProt Q7Z6V5) | inactive: 0
20 | ABHD11 (UniProt Q8NFV4) | inactive: 0

Row | Target | dose-dependent thermal stabilisation call
21 | ACAD9 (UniProt Q9H845) | inactive: 0
22 | ABR (UniProt Q12979) | inactive: 0
23 | AAK1 (UniProt Q2M2I8) | inactive: 0
24 | ACN9 (UniProt Q9NRP4) | inactive: 0
25 | ABL1 (UniProt P00519) | inactive: 0
26 | ACP1 (UniProt P24666) | inactive: 0
27 | ACOT11 (UniProt Q8WXI4) | inactive: 0
28 | ABCC5 (UniProt O15440) | inactive: 0
29 | ABCF2 (UniProt Q9UG63) | inactive: 0
30 | ABI2 (UniProt Q9NYB9) | inactive: 0
31 | ABCF3 (UniProt Q9NUQ8) | inactive: 0
32 | ADAM15 (UniProt Q13444) | inactive: 0
33 | ABHD14B (UniProt Q96IU4) | inactive: 0
34 | ACAP1 (UniProt Q15027) | inactive: 0
35 | ACTL6A (UniProt O96019) | inactive: 0
36 | ABCB7 (UniProt O75027) | inactive: 0
37 | ADFP (UniProt Q99541) | inactive: 0
38 | AARS2 (UniProt Q5JTZ9) | inactive: 0
39 | ACPP (UniProt P15309) | inactive: 0
40 | ADAT3 (UniProt Q96EY9) | inactive: 0

Given in markdown: part of the list above.

| Row | Target | dose-dependent thermal stabilisation call |
| --- | --- | --- |
| 21 | ACAD9 (UniProt Q9H845) | inactive: 0 |
| 22 | ABR (UniProt Q12979) | inactive: 0 |
| 23 | AAK1 (UniProt Q2M2I8) | inactive: 0 |
| 24 | ACN9 (UniProt Q9NRP4) | inactive: 0 |
| 25 | ABL1 (UniProt P00519) | inactive: 0 |
| 26 | ACP1 (UniProt P24666) | inactive: 0 |
| 27 | ACOT11 (UniProt Q8WXI4) | inactive: 0 |
| 28 | ABCC5 (UniProt O15440) | inactive: 0 |
| 29 | ABCF2 (UniProt Q9UG63) | inactive: 0 |
| 30 | ABI2 (UniProt Q9NYB9) | inactive: 0 |
| 31 | ABCF3 (UniProt Q9NUQ8) | inactive: 0 |
| 32 | ADAM15 (UniProt Q13444) | inactive: 0 |
